Assay results reported in PMC4686761.
These are yes or no findings as the source states them, for the method shown. In cells and extracts the contact can be indirect. Some entries that bind do so weakly or less than the wild type.

Amino acid sequences for entries named in this document (tags omitted).
UniProt P60484: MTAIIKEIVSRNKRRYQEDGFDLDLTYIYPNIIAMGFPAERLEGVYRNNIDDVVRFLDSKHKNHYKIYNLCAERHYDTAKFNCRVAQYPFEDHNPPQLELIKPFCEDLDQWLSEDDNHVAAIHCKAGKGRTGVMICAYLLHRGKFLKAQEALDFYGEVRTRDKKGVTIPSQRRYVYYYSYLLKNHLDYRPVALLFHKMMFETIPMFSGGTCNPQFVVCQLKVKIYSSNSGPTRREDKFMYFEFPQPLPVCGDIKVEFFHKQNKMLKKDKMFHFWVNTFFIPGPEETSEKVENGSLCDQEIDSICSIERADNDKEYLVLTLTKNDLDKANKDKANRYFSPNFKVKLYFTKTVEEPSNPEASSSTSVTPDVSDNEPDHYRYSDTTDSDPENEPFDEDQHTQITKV
UniProt P16220: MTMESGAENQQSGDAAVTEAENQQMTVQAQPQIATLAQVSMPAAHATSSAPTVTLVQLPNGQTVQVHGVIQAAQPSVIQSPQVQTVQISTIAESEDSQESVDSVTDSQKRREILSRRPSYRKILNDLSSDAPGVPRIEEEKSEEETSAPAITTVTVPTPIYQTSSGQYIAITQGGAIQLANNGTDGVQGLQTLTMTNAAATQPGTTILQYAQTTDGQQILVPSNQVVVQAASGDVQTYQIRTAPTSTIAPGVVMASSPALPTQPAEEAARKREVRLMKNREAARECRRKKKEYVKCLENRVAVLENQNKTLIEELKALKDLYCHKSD

Target: Phosphatase and tensin homolog (PTEN) (human) (UniProt P60484)
Test: co-IP; about 1 x 10^7 cells lysed in NP40 lysis buffer (50 mM Tris-HCl pH 8.0, 1% NP-40, 150 mM NaCl, 2 mM EDTA); lysates incubated with anti-Flag agarose overnight at 4 °C; three washes; western blotting; Flag-tagged bait and cell type not stated

binding: binds
Substance: cAMP responsive element binding protein 1 (CREB) (from UniProt P16220 1-327)
